These results are taken from paper PMC5928161.

Amino acid sequences for entries named in this document (tags omitted). A change or cut given only in a name is not applied to a line headed by its entry.
UniProt Q9JHF5: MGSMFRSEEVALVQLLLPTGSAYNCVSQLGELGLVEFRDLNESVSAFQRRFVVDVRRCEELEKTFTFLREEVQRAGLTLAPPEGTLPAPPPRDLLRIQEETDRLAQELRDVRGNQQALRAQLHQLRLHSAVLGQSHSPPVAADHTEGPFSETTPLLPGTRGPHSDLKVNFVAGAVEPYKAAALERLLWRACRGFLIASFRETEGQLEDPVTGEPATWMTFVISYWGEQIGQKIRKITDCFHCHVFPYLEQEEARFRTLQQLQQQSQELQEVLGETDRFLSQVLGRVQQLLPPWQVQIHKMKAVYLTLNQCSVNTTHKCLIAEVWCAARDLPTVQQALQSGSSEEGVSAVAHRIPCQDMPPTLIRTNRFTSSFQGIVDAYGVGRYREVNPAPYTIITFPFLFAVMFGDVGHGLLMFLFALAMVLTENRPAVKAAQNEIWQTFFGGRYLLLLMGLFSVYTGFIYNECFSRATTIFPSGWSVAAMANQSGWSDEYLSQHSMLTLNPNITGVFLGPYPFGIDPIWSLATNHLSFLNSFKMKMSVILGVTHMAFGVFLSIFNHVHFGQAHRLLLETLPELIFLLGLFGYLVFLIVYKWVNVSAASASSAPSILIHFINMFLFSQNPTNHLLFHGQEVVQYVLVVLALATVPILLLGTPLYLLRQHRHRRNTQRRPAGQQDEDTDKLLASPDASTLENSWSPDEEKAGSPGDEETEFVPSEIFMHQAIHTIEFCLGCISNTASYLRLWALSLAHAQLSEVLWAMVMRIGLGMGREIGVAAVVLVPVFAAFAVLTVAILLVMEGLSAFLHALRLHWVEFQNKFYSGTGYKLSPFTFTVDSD
UniProt Q9ERI2: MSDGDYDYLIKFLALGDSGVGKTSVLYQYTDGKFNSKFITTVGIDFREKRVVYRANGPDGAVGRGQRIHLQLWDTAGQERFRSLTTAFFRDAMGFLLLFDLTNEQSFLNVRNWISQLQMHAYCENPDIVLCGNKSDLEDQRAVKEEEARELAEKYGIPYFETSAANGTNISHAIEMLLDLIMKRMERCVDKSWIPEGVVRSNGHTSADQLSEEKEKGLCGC

These are yes or no findings as the source states them, for the method shown. Binding seen in cells or lysates may run through a third protein. A result given as binding can be weak or reduced; the word gives no strength.

The target in the assay is FLAG-tagged a3 isoform of the V-ATPase a subunit (mouse) (mouse) (UniProt Q9JHF5). Put plainly: co-IP; FLAG-tagged a subunit isoform and V5-tagged small GTPase co-expressed in HEK293T cells; lysed in IP buffer (1% Triton X-100, 10% glycerol, 50 mM Tris-HCl pH 7.4, 150 mM NaCl, 1 mM dithiothreitol, 1 mM EDTA); immunoprecipitated with an anti-FLAG antibody; Western blot for FLAG, the A subunit and V5. (In general: In western blotting, separated proteins are transferred to a membrane and probed.)

For “V5-fused dominant-negative form of Rab27A (from UniProt Q9ERI2)”, the binding entry was “binds”.
